From paper PMC2775934
No constants are given. Whether binding was seen depends on the method and setting. Binding seen in cells or lysates may run through a third protein. Binding can be weak; no strength is given.

Target: T1, protein kinase D1 (human (endogenous in MCF-7)) (UniProt Q15139)
T1 sequence: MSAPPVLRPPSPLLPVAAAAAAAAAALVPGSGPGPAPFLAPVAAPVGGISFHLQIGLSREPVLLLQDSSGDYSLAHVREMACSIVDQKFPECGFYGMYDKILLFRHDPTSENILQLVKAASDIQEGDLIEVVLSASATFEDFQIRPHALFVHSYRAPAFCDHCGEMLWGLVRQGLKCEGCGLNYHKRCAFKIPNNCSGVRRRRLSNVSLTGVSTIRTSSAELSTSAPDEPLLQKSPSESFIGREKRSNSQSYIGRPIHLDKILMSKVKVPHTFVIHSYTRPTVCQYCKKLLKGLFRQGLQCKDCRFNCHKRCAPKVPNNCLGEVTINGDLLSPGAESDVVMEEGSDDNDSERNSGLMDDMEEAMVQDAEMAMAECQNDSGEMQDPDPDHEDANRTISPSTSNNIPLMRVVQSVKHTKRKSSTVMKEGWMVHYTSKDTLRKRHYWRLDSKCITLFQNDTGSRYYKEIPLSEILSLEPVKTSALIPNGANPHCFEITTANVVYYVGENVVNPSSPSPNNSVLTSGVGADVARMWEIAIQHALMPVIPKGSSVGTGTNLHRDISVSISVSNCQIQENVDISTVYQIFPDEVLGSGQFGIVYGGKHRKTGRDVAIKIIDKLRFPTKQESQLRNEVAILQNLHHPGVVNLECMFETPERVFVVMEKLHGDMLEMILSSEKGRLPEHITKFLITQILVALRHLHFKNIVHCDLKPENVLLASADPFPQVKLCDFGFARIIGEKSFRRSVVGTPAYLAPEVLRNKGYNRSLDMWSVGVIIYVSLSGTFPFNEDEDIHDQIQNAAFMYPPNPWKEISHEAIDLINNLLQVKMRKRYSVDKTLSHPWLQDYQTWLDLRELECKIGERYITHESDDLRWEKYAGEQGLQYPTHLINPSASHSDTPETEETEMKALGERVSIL
Assay: co-IP; anti-PKD1 immunoprecipitates (1 hour, 4°C, Protein G Sepharose) of soluble lysates in 25 mM Tris-HCl pH 7.4, 150 mM NaCl, 1% Triton X-100, blotted for E-cadherin; MCF-7 cells treated with cathepsin G for 10 hours

E-cadherin (human (endogenous in MCF-7))
binding: binds
